Measured values as given in PubChem BioAssay AID256 (DTP/NCI, 2004).
The list is a part of this screen's results and no random one: it gathers tests that were run many times, whatever their T/C, doses with no T/C, and many T/C values between a quarter and a half above the control. Further doses and runs are listed elsewhere. T/C gives the treated animals as a percentage of the vehicle group. Some doses have a count of surviving animals in place of a T/C: the source holds a T/C of zero for them, seemingly a mark for toxic or unscored doses. Some doses without a T/C left all or most animals alive at the check, yet need not have been tolerated: the source hardly ever lists a survival T/C far under the control, and the zero likely stands for such cases as well. Counts of survivors are from the toxicity check (mostly the fifth day) where no day follows; animals may have died later. Schedules are NCI's codes, taken here to give the interval after Q, in days (D) or hours (H), and the number of doses after X. Where survival is the endpoint, the PubChem record calls one and a half times the control and up active, and a quarter to a half above the control has no call in these data; cut-offs in other NCI protocols can differ. Some entries hold several experiments; their values stand side by side, smallest first. Counts like (3×) say how often a value occurs here. Some T/C values are followed by the survivors on the day toxicity was checked, most often the fifth; without a count, all were alive then.

Test system: CD2F1 mice, L1210 leukemia ip, survival T/C
Assay: NCI In Vivo Anticancer Drug Screen. Data for tumor model L1210 Leukemia (intraperitoneal) in CD2F1 (CDF1) mice
Settings: higher T/C = longer survival
Method in brief: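 Ratio T/C, where T is the treated-group value and C the vehicle-dosed control value, from mice implanted with a transplantable tumor.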

**Q.** COc1cccc2c1C(=O)c1c(O)c3c(c(O)c1C2=O)C[C@@](O)(C(=O)CO)C[C@@H]3OC1CC(N)C(O)C(C)O1 (stereo partly drawn) was tested. Which survivor count (T/C endpoint: mean survival time, dose: 4.0 mg/kg/injection, schedule: Q01DX009 (ip), vehicle: water) did it give?
**A.** Its survivor count is 6 of 6.

**Q.** And the T/C (T/C endpoint: mean survival time, dose: 5.0 mg/kg/injection, schedule: Q01DX001 (ip), vehicle: saline)?
**A.** The T/C was 149 % of control.

**Q.** What about the T/C (T/C endpoint: mean survival time, dose: 5.0 mg/kg/injection, schedule: Q04DX003 (ip), vehicle: saline) of the same molecule?
**A.** Its T/C is 137 and 148 % of control.

**Q.** And the T/C (T/C endpoint: mean survival time, dose: 5.0 mg/kg/injection, schedule: Q04DX003 (ip), vehicle: water)?
**A.** The T/C was 147 % of control.

**Q.** What about the survivor count (T/C endpoint: mean survival time, dose: 6.0 mg/kg/injection, schedule: Q01DX009 (ip), vehicle: saline) of the same molecule?
**A.** The survivor count was 8 of 8.

**Q.** What about the survivor count (T/C endpoint: mean survival time, dose: 6.25 mg/kg/injection, schedule: Q01DX009 (ip), vehicle: water) of the same molecule?
**A.** Its survivor count is 6 of 6.

**Q.** And the T/C (T/C endpoint: mean survival time, dose: 6.6 mg/kg/injection, schedule: Q01DX001 (ip), vehicle: saline)?
**A.** Its T/C is 145 % of control.

**Q.** And the survivor count (T/C endpoint: mean survival time, dose: 7.78 mg/kg/injection, schedule: Q01DX009 (ip), vehicle: water)?
**A.** The survivor count was 4 of 8.

**Q.** What about the survivor count (T/C endpoint: mean survival time, dose: 8.0 mg/kg/injection, schedule: Q01DX005 (ip), vehicle: water) of the same molecule?
**A.** The survivor count was 2 of 6.

**Q.** And the T/C (T/C endpoint: mean survival time, dose: 8.0 mg/kg/injection, schedule: Q01DX009 (ip), vehicle: saline, evaluated on day 30)?
**A.** The T/C was 86, 93, 94 % of control.

**Q.** And the T/C (T/C endpoint: mean survival time, dose: 8.0 mg/kg/injection, schedule: Q01DX009 (ip), vehicle: saline, evaluated on day 60)?
**A.** Its T/C is 97 % of control.

**Q.** And the survivor count (T/C endpoint: mean survival time, dose: 8.0 mg/kg/injection, schedule: Q01DX009 (ip), vehicle: saline)?
**A.** The survivor count was 6 of 6.

**Q.** What about the T/C (T/C endpoint: mean survival time, dose: 9.0 mg/kg/injection, schedule: Q01DX001 (ip), vehicle: saline) of the same molecule?
**A.** Its T/C is 140 % of control.

**Q.** And the T/C (T/C endpoint: mean survival time, dose: 10.0 mg/kg/injection, schedule: Q01DX001 (ip), vehicle: saline, evaluated on day 5)?
**A.** Its T/C is 202 % of control.

**Q.** What about the T/C (T/C endpoint: mean survival time, dose: 10.0 mg/kg/injection, schedule: Q01DX001 (ip), vehicle: saline, evaluated on day 45) of the same molecule?
**A.** Its T/C is 148, 158, 202 % of control.

**Q.** What about the T/C (T/C endpoint: mean survival time, dose: 10.0 mg/kg/injection, schedule: Q01DX001 (ip), vehicle: saline, evaluated on day 60) of the same molecule?
**A.** The T/C was 294 % of control.

**Q.** What about the T/C (T/C endpoint: mean survival time, dose: 10.0 mg/kg/injection, schedule: Q04DX003 (ip), vehicle: saline) of the same molecule?
**A.** Its T/C is 139 % of control.

**Q.** And the T/C (T/C endpoint: mean survival time, dose: 10.0 mg/kg/injection, schedule: Q04DX003 (ip), vehicle: water)?
**A.** Its T/C is 133 % of control.

**Q.** And the survivor count (T/C endpoint: mean survival time, dose: 12.0 mg/kg/injection, schedule: Q01DX009 (ip), vehicle: saline)?
**A.** Its survivor count is 6 of 6.

**Q.** And the survivor count (T/C endpoint: mean survival time, dose: 12.96 mg/kg/injection, schedule: Q01DX009 (ip), vehicle: water)?
**A.** The survivor count was 0 of 8.

**Q.** What about the survivor count (T/C endpoint: mean survival time, dose: 16.0 mg/kg/injection, schedule: Q04DX003 (ip), vehicle: water) of the same molecule?
**A.** The survivor count was 5 of 6.

**Q.** What about the T/C (T/C endpoint: mean survival time, dose: 20.0 mg/kg/injection, schedule: Q01DX001 (ip), vehicle: saline, evaluated on day 5) of the same molecule?
**A.** Its T/C is 127 % of control.

**Q.** And the T/C (T/C endpoint: mean survival time, dose: 20.0 mg/kg/injection, schedule: Q01DX001 (ip), vehicle: saline, evaluated on day 45)?
**A.** The T/C was 127 % of control [9 of 10 alive].

**Q.** What about the survivor count (T/C endpoint: mean survival time, dose: 21.6 mg/kg/injection, schedule: Q01DX001 (ip), vehicle: water) of the same molecule?
**A.** Its survivor count is 8 of 8.

**Q.** What about the survivor count (T/C endpoint: mean survival time, dose: 40.0 mg/kg/injection, schedule: Q01DX001 (ip), vehicle: water) of the same molecule?
**A.** The survivor count was 0 of 6.

**Q.** And the T/C (T/C endpoint: median survival time, dose: 0.13 mg/kg/injection, schedule: Q01DX009 (ip), vehicle: saline)?
**A.** Its T/C is 131 % of control.

**Q.** What about the T/C (T/C endpoint: median survival time, dose: 0.25 mg/kg/injection, schedule: Q01DX009 (ip), vehicle: saline) of the same molecule?
**A.** The T/C was 137 and 142 % of control.

**Q.** What about the T/C (T/C endpoint: median survival time, dose: 0.5 mg/kg/injection, schedule: Q01DX005 (ip), vehicle: water) of the same molecule?
**A.** Its T/C is 137 % of control.

**Q.** And the T/C (T/C endpoint: median survival time, dose: 0.5 mg/kg/injection, schedule: Q01DX009 (ip), vehicle: saline, evaluated on day 5)?
**A.** The T/C was 144 % of control.

**Q.** And the T/C (T/C endpoint: median survival time, dose: 0.5 mg/kg/injection, schedule: Q01DX009 (ip), vehicle: saline, evaluated on day 30)?
**A.** The T/C was 140 % of control.

**Q.** And the T/C (T/C endpoint: median survival time, dose: 1.0 mg/kg/injection, schedule: Q01DX001 (ip), vehicle: saline, evaluated on day 6)?
**A.** The T/C was 104, 105, 107, 117, 123, 128 % of control.

**Q.** And the T/C (T/C endpoint: median survival time, dose: 1.0 mg/kg/injection, schedule: Q01DX001 (ip), vehicle: saline, evaluated on day 11)?
**A.** The T/C was 104, 105, 107, 117, 123, 128 % of control.

**Q.** What about the T/C (T/C endpoint: median survival time, dose: 1.0 mg/kg/injection, schedule: Q01DX001 (ip), vehicle: water, evaluated on day 5) of the same molecule?
**A.** The T/C was 130 % of control.

**Q.** And the T/C (T/C endpoint: median survival time, dose: 1.0 mg/kg/injection, schedule: Q01DX001 (ip), vehicle: water, evaluated on day 33)?
**A.** The T/C was 130 % of control.

**Q.** And the T/C (T/C endpoint: median survival time, dose: 1.0 mg/kg/injection, schedule: Q01DX009 (ip), vehicle: saline, evaluated on day 5)?
**A.** The T/C was 134 and 143 % of control.

**Q.** And the T/C (T/C endpoint: median survival time, dose: 1.0 mg/kg/injection, schedule: Q01DX009 (ip), vehicle: saline, evaluated on day 30)?
**A.** The T/C was 129 and 152 % of control.

**Q.** And the T/C (T/C endpoint: median survival time, dose: 1.0 mg/kg/injection, schedule: Q04DX003 (ip), vehicle: saline)?
**A.** Its T/C is 142 % of control.

**Q.** What about the T/C (T/C endpoint: median survival time, dose: 1.0 mg/kg/injection, schedule: Q04DX003 (ip), vehicle: water, evaluated on day 30) of the same molecule?
**A.** Its T/C is 130 % of control.

**Q.** What about the T/C (T/C endpoint: median survival time, dose: 1.0 mg/kg/injection, schedule: Q04DX003 (ip), vehicle: water, evaluated on day 35) of the same molecule?
**A.** Its T/C is 145 % of control.

**Q.** What about the T/C (T/C endpoint: median survival time, dose: 2.0 mg/kg/injection, schedule: Q01DX001 (ip), vehicle: saline, evaluated on day 6) of the same molecule?
**A.** The T/C was 103, 104, 117, 126 (2×), 130 % of control.

**Q.** And the T/C (T/C endpoint: median survival time, dose: 2.0 mg/kg/injection, schedule: Q01DX001 (ip), vehicle: saline, evaluated on day 11)?
**A.** The T/C was 103, 104, 117, 126 (2×), 130 % of control.

**Q.** What about the T/C (T/C endpoint: median survival time, dose: 2.0 mg/kg/injection, schedule: Q01DX001 (ip), vehicle: water, evaluated on day 5) of the same molecule?
**A.** Its T/C is 130 % of control.

**Q.** And the T/C (T/C endpoint: median survival time, dose: 2.0 mg/kg/injection, schedule: Q01DX001 (ip), vehicle: water, evaluated on day 33)?
**A.** Its T/C is 130 % of control.
